# Reference: patent publication US20190264214
# The comparison behind a weaker result is the experiment's own reference, which may not be listed here. The exact form of at least one protein or probe is not confirmed.
# Assays:
# [1] = target: DCP2 (Homo sapiens) (UniProt Q8IU60); test: enzyme reaction in vitro; conditions: enzymatically capped with m7Gppp, purified recombinant protein, label: 32P cap
# [2] = target: FTO (Homo sapiens) (UniProt Q9C0B1); test: activity assay; conditions: HPLC demethylation, purified recombinant protein
sequence,measurement,setting,value
AGCACUUGCUUUUGACACAACU [m7Gppp-Am RNA (decapping)],activity on this sequence,"[1]; first nucleotide 2'-OMe-A, decapping equivalent to unmodified A, variant of m7Gppp-A RNA (decapping)",active
AGCACUUGCUUUUGACACAACU [m7Gppp-m6A RNA (decapping)],activity on this sequence,"[1]; first nucleotide m6A, significantly reduced decapping, variant of m7Gppp-A RNA (decapping)",less active
GACACUUGCUUUUGACACAACU [m7Gpppm6Am RNA],activity on this sequence,"[2]; 5' m7Gppp cap, first nucleotide N6,2'-O-dimethyladenosine, 100 nM FTO, 1 h, 37 C, Fe(II), alpha-ketoglutarate, nearly all m6Am converted to Am, kcat/Km about 100-fold higher than for m6A",active
GACACUUGCUUUUGACACAACU [Gpppm6Am RNA],activity on this sequence,"[2]; 5' Gppp cap without N7-methyl, first nucleotide m6Am, 200 nM FTO, 20 uM RNA, 30 min, impaired without N7-methyl, variant of m7Gpppm6Am RNA",less active
ACACUUGCUUUUGACACAACU [pm6Am RNA],activity on this sequence,"[2]; 5' monophosphate, first nucleotide m6Am, further reduced with monophosphate, variant of m7Gpppm6Am RNA",less active
GACACUUGCUUUUGACACAACU [m7GpppACm6A RNA],activity on this sequence,"[2]; 5' m7Gppp cap, m6A at third nucleotide, m6A demethylation poor in diverse contexts, variant of m7Gpppm6Am RNA",less active
AGUGGACUAACCACCAUGGAAGGU [internal m6A RNA (DRACH)],activity on this sequence,"[2]; internal m6A (AGUGGm6ACU), not readily detected at 100 nM FTO, detected at 200 nM, oligo assignment by m6A consensus",less active
AGCACUUGCUUUUGACACAACU [m7Gppp-A RNA (decapping)],activity on this sequence,"[1]; first nucleotide A, 10 nM DCP2, 37 C, 2 mM MgCl2, 0.5 mM MnCl2, TLC decapping, oligo assigned from 22-nt length",active
GACACUUGCUUUUGACACAACU [m7Gpppm6A RNA],activity on this sequence,"[2]; 5' m7Gppp cap, first nucleotide m6A, 2'-O-methyl important for activity, variant of m7Gpppm6Am RNA",less active
ACACUUGCUUUUGACACAACU [pppm6Am RNA],activity on this sequence,"[2]; 5' triphosphate, first nucleotide m6Am, further reduced when m7G removed, variant of m7Gpppm6Am RNA",less active
AGCACUUGCUUUUGACACAACU [m7Gppp-m6Am RNA (decapping)],activity on this sequence,"[1]; first nucleotide m6Am, significantly reduced decapping, variant of m7Gppp-A RNA (decapping)",less active
